In experiment [1] the test system is highly pathogenic avian influenza A/chicken/Egypt/N12640A/2016 (H5N1). Description: microbe, parasite or virus in culture. The class given is cell-based, influenza A/H5N1 virus.
Experiment [2] has as its system seasonal influenza A/Egypt/NRC098/2019(H1N1). Description: microbe, parasite or virus in culture. The class given is cell-based, influenza A/H1N1 virus.

From publication PMC10804494 (BMC Complementary Medicine and Therapies, 2024) come the findings set out here.

≈ marks a conversion by molar mass, not a printed value. Where two headings read alike, the source gives them in different places.

For `COc1cc2c(c(OC)c1OC)-c1ccc(OC)c(=O)cc1[C@@H](NC(C)=O)CC2` [Colchicine, (S)-N-(1,2,3,10-tetramethoxy-9-oxo-5,6,7,9-tetrahydrobenzo[a]heptalen-7-yl)acetamide], the IC50 (commonly the midpoint of a concentration-inhibition curve) in experiment [1] was found to be 0.111 µg/mL (≈ 0.278 µM); in experiment [1] (Influenza A virus, H5N1, MDCK, 72 h), 0.076 µg/mL (≈ 0.19 µM); in experiment [2], 0.326 µg/mL (≈ 0.816 µM); in experiment [2] (Influenza A virus, H1N1, MDCK, 72 h) it was 0.65 µg/mL (≈ 1.63 µM).
